# Data from patent publication US20140227303A1, “METHODS FOR DIAGNOSING AND MONITORING DISEASES OR CONDITIONS USING DISEASE MODIFIED BIOMOLECULES AND MEASUREMENT OF A FUNCTIONAL IMMUNE RESPONSE” (VIRACOR-IBT LABORATORIES, priority 2011, published 2014).
# Part of at least one peptide drawing is inferred or uncertain, most often the ends. Square brackets hold non-standard residues; d marks the D form. Peptide text beside a SMILES is read from it. Cit = NC(=O)NCCC[C@H](N)C(=O)O
# Assays:
# Format in all cases: cell-based, human
# PBMCs = experiment: Cellular stimulation assay: PBMCs incubated with individual peptides DMB 1011 to DMB 1016, TNFα and IL6 by AlphaLisa; details: 20 hrs incubation
# Description: Experiment 2. Cytokine Production after PBMC Stimulation Using Individual Peptides from DMB 1011 to DMB 1016
# Experimental setting: Peripheral blood mononuclear cells (PBMCs) were prepared from freshly collected blood using a Ficoll gradient method. The cellular stimulation assay was performed by incubating PBMCs with individual peptides DMB 1011 to DMB 1016. Approximately 300,000 to 500,000 PBMC cells were used for each stimulation assay in a cell culture AIM V serum free medium (Life Technologies) within a 96 well round bottom plate. Concentrations of TNFα and IL6 in culture supernatants were determined after 20 hrs incubation using the AlphaLisa® method.
# PBMCs from RA patients = experiment: Cellular stimulation assay: PBMCs incubated with individual peptides DMB 1001-DMB 1010, cytokines in supernatant by AlphaLisa; details: for IL1b concentration in cell culture / IL6 concentration in cell culture / TNFα concentration in culture supernatant: peptide 10 μg/ml, 20 hrs incubation
# Description: Experiment 1: Cytokine Production after Stimulation of PBMCs from RA Patients with Individual Peptides DMB 1001-DMB 1010
# Experimental setting: Peripheral blood mononuclear cells (PBMCs) were prepared from freshly collected blood using a Ficoll gradient method. The cellular stimulation assay was performed by incubation of PBMCs with the individual peptides DMB 1001-DMB 1010 at a concentration of 10 μg/ml. Approximately 300,000 to 500,000 PBMC cells were used for each stimulation assay in a cell culture AIM V serum free medium (Life Technologies) within a 96 well round bottom plate. TNFα, IL6 and IL1b concentrations in culture supernatants were determined using the AlphaLisa® method after 20 hrs of incubation.
# [1] = test system: PBMCs obtained from RA patients; experiment: Individual variation of PBMC stimulation response against DMB 1001 (IL6, TNFα by AlphaLisa); details: DMB 1001 at 10 μg/ml
# [2] = test system: PBMCs from healthy adult, MS patient and RA patients; experiment: Cytokine profiles (Cytokine Index, Cytometric Bead Assay) after PBMC stimulation with DMB 1001; details: DMB 1001 at 10 μg/ml, 20 hrs; Index=100×(DMB 1001-NS)/(SEB-NS)
smiles,measurement,setting,value
"CC(C)C[C@H](NC(=O)[C@H](CCCNC(N)=O)NC(=O)[C@@H](NC(=O)[C@H](C)NC(=O)[C@H](CO)NC(=O)[C@H](CO)NC(=O)[C@H](CCCNC(N)=O)NC(=O)[C@@H](NC(=O)[C@H](C)NC(=O)[C@H](Cc1ccc(O)cc1)NC(=O)[C@@H](NC(=O)CNC(=O)CN)C(C)C)[C@@H](C)O)C(C)C)C(=O)N[C@@H](CCCNC(N)=O)C(=O)N[C@@H](CO)C(=O)N[C@@H](CO)C(=O)N[C@H](C(=O)N1CCC[C@H]1C(=O)O)C(C)C [DMB 1011, GGVYAT[Cit]SSAV[Cit]L[Cit]SSVP]","IL6 concentration in cultures (in words, FIG. 3)",PBMCs,Significantly higher concentrations
same,"TNFα concentration in cultures (in words, FIG. 4)",PBMCs,Significantly higher concentrations
"CC(C)C[C@H](NC(=O)[C@H](CCCNC(N)=O)NC(=O)[C@@H](NC(=O)[C@H](C)NC(=O)[C@H](CO)NC(=O)[C@H](CO)NC(=O)[C@H](CCCNC(N)=O)NC(=O)[C@@H](NC(=O)[C@H](C)NC(=O)[C@H](Cc1ccc(O)cc1)NC(=O)[C@@H](N)C(C)C)[C@@H](C)O)C(C)C)C(=O)N[C@@H](CCCNC(N)=O)C(=O)N[C@@H](CO)C(=O)N[C@@H](CO)C(=O)N[C@H](C(=O)N1CCC[C@H]1C(=O)O)C(C)C [DMB 1001, VYAT[Cit]SSAV[Cit]L[Cit]SSVP] (H-VYAT[Cit]SSAV[Cit]L[Cit]SSVP-OH; N-terminus and C-terminus assumed)",Stimulation response (two RA-related cytokines) relative to non-citrullinated DMB 1002,PBMCs from RA patients; 3 citrulline residues vs none,at least several fold higher
same,IL1b concentration in cell culture,PBMCs from RA patients; PBMC Sample 1,80
same,IL6 concentration in cell culture,PBMCs from RA patients; PBMC Sample 1,664.7
same,TNFα concentration in culture supernatant,PBMCs from RA patients; PBMC Sample 1,163.1 pg/mL
same,IL1b concentration in cell culture,PBMCs from RA patients; PBMC Sample 2,46
same,IL6 concentration in cell culture,PBMCs from RA patients; PBMC Sample 2,320
same,TNFα concentration in culture supernatant,PBMCs from RA patients; PBMC Sample 2,44.3 pg/mL
same,IL6 and IL1b concentrations in supernatants (in words),PBMCs from RA patients; peptide 1001 vs 1002,higher concentrations
same,TNFα concentration compared with negative control wells (in words),"PBMCs from RA patients; samples 1 and 2, negative control = no peptide added",significantly higher than the negative control wells
same,Difference in TNFα concentrations among samples (FIG. 6),[1]; 6 samples tested,more than 10 fold
same,IL6 concentrations in the culture media across individuals (FIG. 5),"[1]; 20 hrs, 37° C., 12 PBMC samples","100 to 60,000 pg/ml"
same,Number of samples with cytokine (IL6) level greater than 1000 pg/ml,[1]; among the 12 PBMC samples,5 samples
same,Cytokine profiles (index of 8 cytokines) of RA patients vs healthy and MS controls (FIG. 7),[2],significantly different
